Assay results from patent publication US9381257B2, “Triarylmethyl radicals” (BRACCO IMAGING S.P.A., priority 2012, dated 2016).

Assay: DNP polarization build-up and dissolution of ethylacetoacetate with the radical as polarizing agent
Procedure: Radical 1 (1.50 mg, 1.4 μmol) was dissolved in 15-Crown-5 (60.5 μl, 67.2 mg) to make a 24 mM solution. To 30 μl (33.7 mg) of this solution was added 1,3-^13C2 ethylacetoacetate (10.5 mg, 79 μmol, 158 μmol ^13C). The radical 1 concentration in the mixture was 18 mM.
43 mg of the composition prepared above were transferred from the Eppendorf tube to a sample cup and the sample cup was inserted into a DNP polarizer. The composition was polarised under DNP conditions at 1.2 K in a 3.35 T magnetic field under irradiation with microwave (93.900 GHz). The calculated solid-state polarization was 17% and the polarization build-up constant was 900 s.
The sample was dissolved in 6 ml 40 mM phosphate buffer pH 7.3+100 mg/l EDTA. A time series of 1D 13C-NMR spectra were recorded with a total delay between the pulses of 3 s. The liquid state polarization was 14% after 12 s transfer time. The pH was 7.3 in the dissolved sample. […]
43 mg of the composition prepared above were transferred from the Eppendorf tube to a sample cup and the sample cup was inserted into a DNP polarizer. […] The calculated solid-state polarization was 18% and the polarization build-up constant was 1700 s.
The sample was dissolved in 6 ml 40 mM phosphate buffer pH 7.3+100 mg/l EDTA. A time series of 1D 13C-NMR spectra were recorded with a total delay between the pulses of 3 s. […]

Substance: tris{8-carboxyl-2,2,6,6-tetramethyl-benzo(1,2-d:4,5-dS)bis(1,3)dithiole-4-yl}methyl sodium salt [Radical 1, reference compound]
- calculated solid-state polarization (18 mM radical in 15-Crown-5 / 1,3-13C2 ethylacetoacetate, DNP at 1.2 K, 3.35 T, microwave irradiation): 17%
- liquid state polarization (after 12 s transfer time, dissolved in 6 ml 40 mM phosphate buffer pH 7.3 + 100 mg/l EDTA): 14%
